Drawing on patent US20070243181A1, this text covers binding for two substances.

By UniProt entry, the sequences of proteins in these tests, tags left out. Where a name states a change or a piece, a line headed by the entry shows the natural chain unless it says otherwise. Chains listed by the source or under a name are the forms on record and can include a tag or linker.
UniProt Q99836: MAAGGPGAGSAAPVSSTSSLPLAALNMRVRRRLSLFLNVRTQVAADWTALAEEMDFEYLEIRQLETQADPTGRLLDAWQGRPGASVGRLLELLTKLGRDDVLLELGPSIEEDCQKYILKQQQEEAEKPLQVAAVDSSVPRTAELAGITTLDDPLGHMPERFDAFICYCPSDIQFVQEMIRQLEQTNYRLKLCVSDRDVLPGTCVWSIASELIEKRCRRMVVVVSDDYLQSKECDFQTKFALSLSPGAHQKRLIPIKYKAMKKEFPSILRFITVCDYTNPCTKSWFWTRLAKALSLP
UniProt P51617: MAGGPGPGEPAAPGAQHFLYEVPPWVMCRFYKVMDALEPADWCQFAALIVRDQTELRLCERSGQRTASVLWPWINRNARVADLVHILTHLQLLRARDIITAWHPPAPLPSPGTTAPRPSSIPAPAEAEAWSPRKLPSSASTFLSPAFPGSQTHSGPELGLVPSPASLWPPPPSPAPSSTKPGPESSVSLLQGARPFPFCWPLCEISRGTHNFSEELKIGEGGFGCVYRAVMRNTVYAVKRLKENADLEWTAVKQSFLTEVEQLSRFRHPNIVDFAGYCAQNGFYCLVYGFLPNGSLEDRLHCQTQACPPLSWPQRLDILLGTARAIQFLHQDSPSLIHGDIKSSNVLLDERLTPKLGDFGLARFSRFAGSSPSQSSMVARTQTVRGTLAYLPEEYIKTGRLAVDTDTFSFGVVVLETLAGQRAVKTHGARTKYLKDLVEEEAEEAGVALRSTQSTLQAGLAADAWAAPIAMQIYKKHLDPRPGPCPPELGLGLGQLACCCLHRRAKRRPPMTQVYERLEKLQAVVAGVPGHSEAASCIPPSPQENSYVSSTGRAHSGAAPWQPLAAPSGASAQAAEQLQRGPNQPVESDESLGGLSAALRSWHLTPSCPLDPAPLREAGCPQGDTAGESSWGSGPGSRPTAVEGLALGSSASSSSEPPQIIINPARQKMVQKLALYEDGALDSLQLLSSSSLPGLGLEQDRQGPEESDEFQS
myc-IRAK1-KD (P51617, form named): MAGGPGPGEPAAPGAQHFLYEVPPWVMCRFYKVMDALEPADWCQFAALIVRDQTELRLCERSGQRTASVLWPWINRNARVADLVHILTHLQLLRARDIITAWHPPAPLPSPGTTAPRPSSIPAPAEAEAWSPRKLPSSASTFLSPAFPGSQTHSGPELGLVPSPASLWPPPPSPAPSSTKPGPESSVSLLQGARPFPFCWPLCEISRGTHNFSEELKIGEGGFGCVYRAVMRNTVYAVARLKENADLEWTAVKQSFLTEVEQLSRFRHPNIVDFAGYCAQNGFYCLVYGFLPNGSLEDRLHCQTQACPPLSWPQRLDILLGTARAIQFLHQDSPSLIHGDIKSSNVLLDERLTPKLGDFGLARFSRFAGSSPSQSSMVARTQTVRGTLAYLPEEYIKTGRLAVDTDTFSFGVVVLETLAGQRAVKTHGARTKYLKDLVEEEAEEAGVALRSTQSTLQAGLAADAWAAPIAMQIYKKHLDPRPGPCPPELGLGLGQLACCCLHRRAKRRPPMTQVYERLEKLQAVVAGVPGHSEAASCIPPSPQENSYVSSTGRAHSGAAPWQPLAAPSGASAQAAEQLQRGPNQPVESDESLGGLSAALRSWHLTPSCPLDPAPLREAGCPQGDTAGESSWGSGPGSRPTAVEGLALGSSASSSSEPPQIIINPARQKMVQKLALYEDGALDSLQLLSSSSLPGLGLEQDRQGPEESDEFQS

Results are given in words; binding and its absence hold for the method and conditions named. Binding seen in cells or lysates may run through a third protein. Some results given as binding are weak or reduced against the parent protein; the word gives no strength.

For this experiment, the target named is FLAG-tagged MyD88 (UniProt Q99836). Briefly: co-immunoprecipitation from co-transfected 293T cells: anti-FLAG IP, anti-myc immunoblot. (In general: A western blot detects proteins with antibodies after separation by electrophoresis.)

Turning to “myc-IRAK1 (from UniProt P51617 1-712) (enzyme)”, the binding entry is listed as “binds”. With “myc-IRAK1-KD (from UniProt P51617 1-712) (enzyme)” the entry was “binds”.
